Some entries share one result that the patent states for a list of compounds. For some assays here: At least one compound was matched to its structure with a doubt left.
What was measured:
Format in all cases: physicochemical
[1] = Stability to air followed by UV/vis; details: Example 1, MeCN, 12 h
[2] = Metal ion exchange with Zn(II) followed by 1H NMR; details: Example 1, reaction with Zn(II)
Experimental: FIG. 19, comprising FIG. 19A and FIG. 19B, depicts representative NMR data. FIG. 19A depicts a reaction between 20 mM Zn(ClO4)2 and 10 mM 1 in CD3CN. The reaction equilibrated at 295 K for 24 h prior to data acquisition. FIG. 19B depicts the ^1H NMR spectrum of the product of the reaction between 10 mM Zn(ClO4)2 and 10 mM metal-free H4qp4.
FIG. 63, comprising FIG. 63A and FIG. 63B, depicts representative NMR data. FIG. 63A depicts the reaction between 20 mM Zn(ClO4)2 and 10 mM 3 in D20. The reaction equilibrated at 295 K for 48 h prior to data acquisition. FIG. 63B depicts a ^1H NMR spectrum of the product of the reaction between 10 mM Zn(ClO4)2 and 10 mM metal-free H4qp4 in D20.

[3] = Stability of Mn(II) complexes by potentiometric pH titration (log KML, pMn); details: Mn(II) bound to the named form of the ligand, 25° C.

Structure (SMILES) | oxidation to Mn(II) para-quinone complexes in air [1] | time until 1H NMR features of the Zn(II) complexes appear [2] | log KML of the Mn(II) complex [3]
O=S(=O)([O-])C(F)(F)F.O=S(=O)([O-])C(F)(F)F.[Fe+3].[O-]c1ccc(O)cc1CN1CCCNCCN(Cc2cc(O)ccc2O)CCCNCC1 [Complex 3, (1-(2,5-dihydroxybenzyl)-8-(2,5-dihydroxybenzylalkoxide)-1,4,8,11-tetraazacyclotetradecane)iron(III) triflate] | 5-10% |  | 
CC#N.O=S(=O)([O-])C(F)(F)F.O=S(=O)([O-])C(F)(F)F.Oc1ccc(O)c(CN(CCN(Cc2ccccn2)Cc2ccccn2)Cc2ccccn2)c1.[Mn+2] [Complex 2] | 5-10% | ≤ 2 h | 
Oc1ccc(O)c(CN2CCCNCCN(Cc3cc(O)ccc3O)CCCNCC2)c1 [Complex H4qp4, 1,8-bis(2,5-dihydroxybenzyl)-1,4,8,11-tetraazacyclotetradecane] |  |  | exceeded 14
Oc1ccc(O)c(CN(CCN(Cc2ccccn2)Cc2cc(O)ccc2O)Cc2ccccn2)c1.[Br-].[Br-].[Mn+2] [Complex 3] |  | ≤ 2 h | 
